Results: the supplement of paper PMC10382679
Single values of this set are uncertain.

B1: Rpb7; numbered along this chain (parent)
chain: MFFIKDLSLNITLHPSFFGPRMKQYLKTKLLEEVEGSCTGKFGYILCVLDYDNIDIQRGRILPTDGSAEFNVKYRAVVFKPFKGEVVDGTVVSCSQHGFEVQVGPMKVFVTKHLMPQDLTFNAGSNPPSYQSSEDVITIKSRIRVKIEGCISQVSSIHAIGSIKEDYLGAI

How the values were obtained:
[1] = variants of: B1; assay: log2 fold change of mutant abundance, UV-irradiated vs unirradiated; higher = more UV resistant (enriched after UV); conditions: with Saccharomyces cerevisiae rad7Δ rad26Δ; UV dose (J/m2): 10; genetic background: rad7Δ rad26Δ rpb7Δ + plasmid RPB7 library; outgrowth: 10 cell divisions
[2] = variants of: B1; assay: NOISeq theta enrichment statistic, UV-irradiated vs unirradiated (dimensionless); higher = more UV resistant (enriched after UV); conditions: with Saccharomyces cerevisiae rad7Δ rad26Δ; UV dose (J/m2): 10; genetic background: rad7Δ rad26Δ rpb7Δ + plasmid RPB7 library; outgrowth: 10 cell divisions

S141G
log2 fold change of mutant abundance [1]: 0.032
NOISeq theta enrichment statistic [2]: 0.0743

I45N
log2 fold change of mutant abundance [1]: -0.084
NOISeq theta enrichment statistic [2]: -0.118

I45C
log2 fold change of mutant abundance [1]: -0.608
NOISeq theta enrichment statistic [2]: -0.322

Q117S
log2 fold change of mutant abundance [1]: -0.138
NOISeq theta enrichment statistic [2]: -0.162

L7H
log2 fold change of mutant abundance [1]: 0.0965
NOISeq theta enrichment statistic [2]: 0.232

L7R
log2 fold change of mutant abundance [1]: 0.0964
NOISeq theta enrichment statistic [2]: 0.112

L7F
log2 fold change of mutant abundance [1]: -0.145
NOISeq theta enrichment statistic [2]: -0.261

V101G
log2 fold change of mutant abundance [1]: -0.0131
NOISeq theta enrichment statistic [2]: -0.0878

S8L
log2 fold change of mutant abundance [1]: 0.0426
NOISeq theta enrichment statistic [2]: 0.0798

S8R
log2 fold change of mutant abundance [1]: -0.462
NOISeq theta enrichment statistic [2]: -0.365

S152T
log2 fold change of mutant abundance [1]: -0.333
NOISeq theta enrichment statistic [2]: -0.395

S132T
log2 fold change of mutant abundance [1]: 0.0442
NOISeq theta enrichment statistic [2]: 0.0458

S132G
log2 fold change of mutant abundance [1]: -0.339
NOISeq theta enrichment statistic [2]: -0.849

D55H
log2 fold change of mutant abundance [1]: 0.188
NOISeq theta enrichment statistic [2]: 0.231

D55N
log2 fold change of mutant abundance [1]: 0.0303
NOISeq theta enrichment statistic [2]: 0.0688

D55P
log2 fold change of mutant abundance [1]: 0.255
NOISeq theta enrichment statistic [2]: 0.224

M22T
log2 fold change of mutant abundance [1]: -0.211
NOISeq theta enrichment statistic [2]: -0.552

C94R
log2 fold change of mutant abundance [1]: -0.299
NOISeq theta enrichment statistic [2]: -0.557

C94A
log2 fold change of mutant abundance [1]: 0.163
NOISeq theta enrichment statistic [2]: 0.129

V103K
log2 fold change of mutant abundance [1]: 0.287
NOISeq theta enrichment statistic [2]: 0.305

V103I
log2 fold change of mutant abundance [1]: 0.0576
NOISeq theta enrichment statistic [2]: 0.263

Y25S
log2 fold change of mutant abundance [1]: 0.407
NOISeq theta enrichment statistic [2]: 0.512

Y25I
log2 fold change of mutant abundance [1]: -0.166
NOISeq theta enrichment statistic [2]: -0.153

L30I
log2 fold change of mutant abundance [1]: 0.143
NOISeq theta enrichment statistic [2]: 0.278

L30F
log2 fold change of mutant abundance [1]: -0.00583
NOISeq theta enrichment statistic [2]: -0.00479

L30R
log2 fold change of mutant abundance [1]: -0.152
NOISeq theta enrichment statistic [2]: -0.137

L30H
log2 fold change of mutant abundance [1]: -0.215
NOISeq theta enrichment statistic [2]: -0.161

S16T
log2 fold change of mutant abundance [1]: -0.000482
NOISeq theta enrichment statistic [2]: -0.0022

S16P
log2 fold change of mutant abundance [1]: -0.174
NOISeq theta enrichment statistic [2]: -0.526

T90K
log2 fold change of mutant abundance [1]: -0.0472
NOISeq theta enrichment statistic [2]: -0.304

T90G
log2 fold change of mutant abundance [1]: 0.0709
NOISeq theta enrichment statistic [2]: 0.0506

T90L
log2 fold change of mutant abundance [1]: -0.0553
NOISeq theta enrichment statistic [2]: -0.0568

A159V
log2 fold change of mutant abundance [1]: 0.326
NOISeq theta enrichment statistic [2]: 0.687

A159D
log2 fold change of mutant abundance [1]: 0.00747
NOISeq theta enrichment statistic [2]: 0.00505

G84L
log2 fold change of mutant abundance [1]: 0.064
NOISeq theta enrichment statistic [2]: 0.0398

G84C
log2 fold change of mutant abundance [1]: 0.311
NOISeq theta enrichment statistic [2]: 0.255

H158Q
log2 fold change of mutant abundance [1]: -0.394
NOISeq theta enrichment statistic [2]: -0.785

Y51N
log2 fold change of mutant abundance [1]: -0.0215
NOISeq theta enrichment statistic [2]: -0.0708

Y51E
log2 fold change of mutant abundance [1]: 1.12
NOISeq theta enrichment statistic [2]: 0.527

P116D
log2 fold change of mutant abundance [1]: 0.482
NOISeq theta enrichment statistic [2]: 0.315

P116Q
log2 fold change of mutant abundance [1]: 0.0517
NOISeq theta enrichment statistic [2]: 0.0616

D52K
log2 fold change of mutant abundance [1]: -0.247
NOISeq theta enrichment statistic [2]: -0.123

D52S
log2 fold change of mutant abundance [1]: 0.739
NOISeq theta enrichment statistic [2]: 0.559

D52I
log2 fold change of mutant abundance [1]: -0.0142
NOISeq theta enrichment statistic [2]: -0.016

K107M
log2 fold change of mutant abundance [1]: -0.08
NOISeq theta enrichment statistic [2]: -0.0654

K107T
log2 fold change of mutant abundance [1]: 0.0609
NOISeq theta enrichment statistic [2]: 0.219

M106A
log2 fold change of mutant abundance [1]: -0.323
NOISeq theta enrichment statistic [2]: -0.139

M106V
log2 fold change of mutant abundance [1]: 0.0758
NOISeq theta enrichment statistic [2]: 0.329

M106P
log2 fold change of mutant abundance [1]: 0.0921
NOISeq theta enrichment statistic [2]: 0.0536

K164V
log2 fold change of mutant abundance [1]: -0.504
NOISeq theta enrichment statistic [2]: -0.217

S133N
log2 fold change of mutant abundance [1]: -0.63
NOISeq theta enrichment statistic [2]: -0.369

S133C
log2 fold change of mutant abundance [1]: -0.18
NOISeq theta enrichment statistic [2]: -0.206

T39K
log2 fold change of mutant abundance [1]: 0.307
NOISeq theta enrichment statistic [2]: 0.704

H113C
log2 fold change of mutant abundance [1]: -0.927
NOISeq theta enrichment statistic [2]: -0.514

V72R
log2 fold change of mutant abundance [1]: 0.197
NOISeq theta enrichment statistic [2]: 0.134

V72S
log2 fold change of mutant abundance [1]: -0.0435
NOISeq theta enrichment statistic [2]: -0.0375

G149D
log2 fold change of mutant abundance [1]: 2.78
NOISeq theta enrichment statistic [2]: 3.42

V110S
log2 fold change of mutant abundance [1]: 0.102
NOISeq theta enrichment statistic [2]: 0.0686

V110C
log2 fold change of mutant abundance [1]: 0.0843
NOISeq theta enrichment statistic [2]: 0.0919

V110T
log2 fold change of mutant abundance [1]: 0.65
NOISeq theta enrichment statistic [2]: 0.349

V110M
log2 fold change of mutant abundance [1]: 0.184
NOISeq theta enrichment statistic [2]: 0.387

V110W
log2 fold change of mutant abundance [1]: -0.0131
NOISeq theta enrichment statistic [2]: -0.0202

K80T
log2 fold change of mutant abundance [1]: -0.121
NOISeq theta enrichment statistic [2]: -0.34

K80R
log2 fold change of mutant abundance [1]: -0.101
NOISeq theta enrichment statistic [2]: -0.597

K80D
log2 fold change of mutant abundance [1]: -0.266
NOISeq theta enrichment statistic [2]: -0.242

C150L
log2 fold change of mutant abundance [1]: -0.237
NOISeq theta enrichment statistic [2]: -0.168

E100H
log2 fold change of mutant abundance [1]: 0.21
NOISeq theta enrichment statistic [2]: 0.163

A123P
log2 fold change of mutant abundance [1]: -0.0275
NOISeq theta enrichment statistic [2]: -0.0411

L9Y
log2 fold change of mutant abundance [1]: -0.321
NOISeq theta enrichment statistic [2]: -0.142

S129Q
log2 fold change of mutant abundance [1]: 0.0494
NOISeq theta enrichment statistic [2]: 0.0315

V78Y
log2 fold change of mutant abundance [1]: 0.24
NOISeq theta enrichment statistic [2]: 0.216

I143V
log2 fold change of mutant abundance [1]: -0.0155
NOISeq theta enrichment statistic [2]: -0.0673

I143M
log2 fold change of mutant abundance [1]: 0.145
NOISeq theta enrichment statistic [2]: 0.251

G43W
log2 fold change of mutant abundance [1]: 0.00397
NOISeq theta enrichment statistic [2]: 0.00255

K29S
log2 fold change of mutant abundance [1]: -0.0673
NOISeq theta enrichment statistic [2]: -0.0365

K29P
log2 fold change of mutant abundance [1]: 0.134
NOISeq theta enrichment statistic [2]: 0.106

S95G
log2 fold change of mutant abundance [1]: 0.0546
NOISeq theta enrichment statistic [2]: 0.0421

F17N
log2 fold change of mutant abundance [1]: -0.24
NOISeq theta enrichment statistic [2]: -0.0932

P127R
log2 fold change of mutant abundance [1]: -0.0672
NOISeq theta enrichment statistic [2]: -0.104

P127I
log2 fold change of mutant abundance [1]: 0.223
NOISeq theta enrichment statistic [2]: 0.0881

Y44V
log2 fold change of mutant abundance [1]: -0.243
NOISeq theta enrichment statistic [2]: -0.112

K41H
log2 fold change of mutant abundance [1]: -0.309
NOISeq theta enrichment statistic [2]: -0.266

K41E
log2 fold change of mutant abundance [1]: -0.0413
NOISeq theta enrichment statistic [2]: -0.165

T64I
log2 fold change of mutant abundance [1]: -0.0156
NOISeq theta enrichment statistic [2]: -0.0595

E33R
log2 fold change of mutant abundance [1]: -0.0372
NOISeq theta enrichment statistic [2]: -0.0389

L13F
log2 fold change of mutant abundance [1]: -0.243
NOISeq theta enrichment statistic [2]: -0.479

T120G
log2 fold change of mutant abundance [1]: 0.358
NOISeq theta enrichment statistic [2]: 0.216

T120S
log2 fold change of mutant abundance [1]: 0.00721
NOISeq theta enrichment statistic [2]: 0.0407

I54N
log2 fold change of mutant abundance [1]: 0.799
NOISeq theta enrichment statistic [2]: 0.413

I54T
log2 fold change of mutant abundance [1]: 0.132
NOISeq theta enrichment statistic [2]: 0.377

V91T
log2 fold change of mutant abundance [1]: -0.0212
NOISeq theta enrichment statistic [2]: -0.0186

V91D
log2 fold change of mutant abundance [1]: 0.0791
NOISeq theta enrichment statistic [2]: 0.202

V91N
log2 fold change of mutant abundance [1]: -0.102
NOISeq theta enrichment statistic [2]: -0.0761

V91C
log2 fold change of mutant abundance [1]: 0.0174
NOISeq theta enrichment statistic [2]: 0.0225

V91G
log2 fold change of mutant abundance [1]: -0.0376
NOISeq theta enrichment statistic [2]: -0.142

N122K
log2 fold change of mutant abundance [1]: 0.166
NOISeq theta enrichment statistic [2]: 0.768

N122I
log2 fold change of mutant abundance [1]: -0.186
NOISeq theta enrichment statistic [2]: -0.489

N122H
log2 fold change of mutant abundance [1]: -0.0249
NOISeq theta enrichment statistic [2]: -0.032

R144C
log2 fold change of mutant abundance [1]: -0.221
NOISeq theta enrichment statistic [2]: -0.161

R144K
log2 fold change of mutant abundance [1]: 0.00255
NOISeq theta enrichment statistic [2]: 0.00498

R144N
log2 fold change of mutant abundance [1]: -0.124
NOISeq theta enrichment statistic [2]: -0.0598

R21G
log2 fold change of mutant abundance [1]: -0.365
NOISeq theta enrichment statistic [2]: -0.407

R21W
log2 fold change of mutant abundance [1]: -1.36
NOISeq theta enrichment statistic [2]: -0.588

P20A
log2 fold change of mutant abundance [1]: -0.00343
NOISeq theta enrichment statistic [2]: -0.00334

P20L
log2 fold change of mutant abundance [1]: 0.133
NOISeq theta enrichment statistic [2]: 0.315

N71P
log2 fold change of mutant abundance [1]: 0.265
NOISeq theta enrichment statistic [2]: 0.236

N71Q
log2 fold change of mutant abundance [1]: -0.387
NOISeq theta enrichment statistic [2]: -0.233

V92C
log2 fold change of mutant abundance [1]: 0.0158
NOISeq theta enrichment statistic [2]: 0.0189

D135A
log2 fold change of mutant abundance [1]: -0.148
NOISeq theta enrichment statistic [2]: -0.179

F2Y
log2 fold change of mutant abundance [1]: -0.00208
NOISeq theta enrichment statistic [2]: -0.0057

F2G
log2 fold change of mutant abundance [1]: -0.314
NOISeq theta enrichment statistic [2]: -0.213

T111L
log2 fold change of mutant abundance [1]: 1.1
NOISeq theta enrichment statistic [2]: 0.931

D118C
log2 fold change of mutant abundance [1]: -0.203
NOISeq theta enrichment statistic [2]: -0.134

I160L
log2 fold change of mutant abundance [1]: -0.129
NOISeq theta enrichment statistic [2]: -0.184

R58Y
log2 fold change of mutant abundance [1]: -0.31
NOISeq theta enrichment statistic [2]: -0.176
